The subject of this data set is HeLa cell sphere. Put plainly: Cell suspension test of HeLa cell spheres. In kind it is cell-based, human. Conditions: 37° C., 1 hr.

With collagen, the HeLa cell suspension/sedimentation entry was “sedimentation” (0.01% (w/v) in DMEM/F-12), “suspension” (0.05% (w/v) in DMEM/F-12), “suspension” (0.1% (w/v) in DMEM/F-12) and “suspension” (0.2% (w/v) in DMEM/F-12).

(Values after patent US10487308B2, “Culture medium composition” (NISSAN CHEMICAL CORPORATION, priority 2014, dated 2019).)
